Test results from the supplement of paper PMC10689618.
Some of the results follow. Repeats are few or missing, and single values can be far off.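 Primary human fetal astrocytes engulfed labelled rat cortical synaptosomes, measured as a red/green ratio corrected for calcein live-cell signal and scaled to the plate median. Toxicity meant calcein falling over 30%; decreased phagocytosis meant below 70% of median above 5 µM.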

Experiments:
Human fetal astrocytes [1] = experiment: loss of total cells relative to no-compound high-control median (toxicity); higher = more toxic (fewer cells); details: 24 h
Human fetal astrocytes [2] = experiment: synaptosome phagocytosis (pHrodo/calcein intensity ratio) relative to plate median of data wells; higher = more phagocytosis; details: 24 h

Row | SMILES | loss of total cells (Human fetal astrocytes [1]; 1.39 µM) [%] | loss of total cells (Human fetal astrocytes [1]; 2.78 µM) [%] | loss of total cells (Human fetal astrocytes [1]; 5.56 µM) [%] | loss of total cells (Human fetal astrocytes [1]; 11.11 µM) [%] | loss of total cells (Human fetal astrocytes [1]; 22.22 µM) [%] | synaptosome phagocytosis (Human fetal astrocytes [2]; 1.39 µM) [%] | synaptosome phagocytosis (Human fetal astrocytes [2]; 2.78 µM) [%] | synaptosome phagocytosis (Human fetal astrocytes [2]; 5.56 µM) [%] | synaptosome phagocytosis (Human fetal astrocytes [2]; 11.11 µM) [%] | synaptosome phagocytosis (Human fetal astrocytes [2]; 22.22 µM) [%]
1 | COc1ccc(-c2oc3cc(OC)c(OC)c(OC)c3c(=O)c2OC)cc1OC | -23 | -11.9 | -3.7 | 25.7 | 0.7 | 99.3 | 109 | 90.3 | 84.6 | 88.8
2 | NC(=O)NCCC[C@H](N)C(=O)O | -2.5 | -8.3 | 2.2 | 15.5 | 0 | 105 | 97 | 113 | 95.4 | 120
3 | COc1cnc(NS(=O)(=O)c2ccc(N)cc2)nc1 | -6.6 | -13.1 | -4.5 | -17.2 | 7.9 | 81 | 107 | 112 | 72.4 | 97.7
4 | Cc1cc(O)c(C=O)c2c1C(=O)Oc1c(C)c(O)c3c(c1O2)C(O)OC3=O (stereo not given) | 19.9 | 22.7 | 30.4 | -2.1 | 14.4 | 109 | 103 | 136 | 87.7 | 126
5 | O=C(O[C@@H]1Cc2c(O)cc(O)cc2O[C@@H]1c1cc(O)c(O)c(O)c1)c1cc(O)c(O)c(O)c1 | -6.9 | 10.6 | -26 | 12.9 | 21.9 | 111 | 124 | 64.7 | 81.9 | 65.1
6 | Cc1cc(C)nc(NS(=O)(=O)c2ccc(N)cc2)n1 | 3.9 | -25.4 | -3.5 | 6.6 | -20.4 | 123 | 124 | 129 | 124 | 120
7 | O=C(CCCN1CCN(c2ccccn2)CC1)c1ccc(F)cc1 | -27.4 | 28.6 | 5 | 46.2 | 5.3 | 74.9 | 123 | 98.5 | 138 | 88
8 | Cc1noc(NS(=O)(=O)c2ccc(N)cc2)c1C | -10.4 | -4.4 | 1.4 | 3.2 | 25.2 | 94.1 | 118 | 91.5 | 97.9 | 115
9 | COc1ccc(C(=O)O)c(O)c1OC | -27 | -24.2 | 6.6 | 5.4 | 14.1 | 137 | 73.3 | 121 | 102 | 91.9
10 | Cc1cccc2c3c(ccc12)C1=C(C(=O)C3=O)[C@@H](C)CO1 | -13.1 | -13.4 | 22 | 31.8 | 17 | 64.4 | 59.8 | 96.9 | 47 | 72.6
11 | CO[C@H]1C[C@H](O[C@@H]2/C(C)=C/C[C@@H]3C[C@@H](C[C@]4(CC[C@H](C)[C@@H](C5CCCCC5)O4)O3)OC(=O)[C@@H]3C=C(C)/C(=N/O)[C@H]4OC/C(=C\C=C\[C@@H]2C)[C@]43O)O[C@@H](C)[C@@H]1O | -29 | -42.1 | 8.7 | 56.1 | 40.8 | 82.1 | 72.3 | 63.4 | 16.3 | 36.1
12 | CCN(CC)CCOc1ccc(C(=C(Cl)c2ccccc2)c2ccccc2)cc1 | 2.1 | 23.4 | 23.7 | 85.6 | 101 | 90.4 | 72.4 | 60.9 | 13.9 | 0
13 | CC(C)(C)NC[C@H](O)c1ccc(O)c(CO)c1 | 3.3 | -11.3 | -33.3 | -2.3 | -7.9 | 93.5 | 84.9 | 84.5 | 70.6 | 82.3
14 | CN(C)CCOC(c1ccccc1)c1ccccc1.Cn1c(=O)c2[nH]c(Cl)nc2n(C)c1=O | 15.1 | -28.1 | -5.6 | 11.2 | -36.2 | 132 | 134 | 92.7 | 109 | 82.9
15 | CCCCc1nc(Cl)c(CO)n1Cc1ccc(-c2ccccc2-c2nnn[nH]2)cc1 | -15.8 | -5.8 | 7.5 | -14.1 | 0 | 91.5 | 112 | 96.6 | 124 | 89.6
16 | COc1cc(/C=C/C(=O)O)ccc1O | 30.7 | -49.5 | 23.9 | 13.8 | 19.7 | 147 | 6.2 | 85.1 | 105 | 122
17 | CC[C@H](CC[C@@H](C)[C@H]1CC[C@H]2[C@@H]3CC=C4C[C@@H](OC(C)=O)CC[C@]4(C)[C@H]3CC[C@]12C)C(C)C | 7.6 | 2 | 34.4 | -5.2 | 32.2 | 126 | 71.3 | 142 | 110 | 163
18 | O=C(O)c1cc(=O)c2c(OCC(O)COc3cccc4oc(C(=O)O)cc(=O)c34)cccc2o1 | -4.5 | -10.5 | -22.3 | 3.7 | 22.2 | 135 | 123 | 95.6 | 105 | 102
19 | Nc1ncnc2c1ncn2[C@@H]1O[C@H](CO)[C@@H](O)[C@H]1O | -0.8 | -13.7 | 21.3 | 0 | 11.9 | 80.3 | 102 | 113 | 118 | 118
20 | COc1cc(N)c(Cl)cc1C(=O)NC1CCN(Cc2ccccc2)CC1 | -49 | -5.2 | 10.5 | -18.8 | -5.1 | 110 | 91.6 | 87.7 | 157 | 89.2
21 | CC(=O)O[C@H]1CC[C@@]2(C)[C@@H](CC[C@@H]3[C@@H]2CC(=O)[C@]2(C)[C@@H]4[C@H](C[C@@H]32)O[C@]2(CC[C@@H](C)CO2)[C@H]4C)C1 | -23.6 | -2.7 | -19.8 | -11 | -17.4 | 98.1 | 94.2 | 102 | 87.6 | 122

Quoted at random: 2 entries already listed, in no set order.
Row | SMILES | loss of total cells (Human fetal astrocytes [1]; 1.39 µM) [%] | loss of total cells (Human fetal astrocytes [1]; 2.78 µM) [%] | loss of total cells (Human fetal astrocytes [1]; 5.56 µM) [%] | loss of total cells (Human fetal astrocytes [1]; 11.11 µM) [%] | loss of total cells (Human fetal astrocytes [1]; 22.22 µM) [%] | synaptosome phagocytosis (Human fetal astrocytes [2]; 1.39 µM) [%] | synaptosome phagocytosis (Human fetal astrocytes [2]; 2.78 µM) [%] | synaptosome phagocytosis (Human fetal astrocytes [2]; 5.56 µM) [%] | synaptosome phagocytosis (Human fetal astrocytes [2]; 11.11 µM) [%] | synaptosome phagocytosis (Human fetal astrocytes [2]; 22.22 µM) [%]
1 | COc1ccc(-c2oc3cc(OC)c(OC)c(OC)c3c(=O)c2OC)cc1OC | -23 | -11.9 | -3.7 | 25.7 | 0.7 | 99.3 | 109 | 90.3 | 84.6 | 88.8
15 | CCCCc1nc(Cl)c(CO)n1Cc1ccc(-c2ccccc2-c2nnn[nH]2)cc1 | -15.8 | -5.8 | 7.5 | -14.1 | 0 | 91.5 | 112 | 96.6 | 124 | 89.6

(listing goes on)

Row | SMILES | loss of total cells (Human fetal astrocytes [1]; 1.39 µM) [%] | loss of total cells (Human fetal astrocytes [1]; 2.78 µM) [%] | loss of total cells (Human fetal astrocytes [1]; 5.56 µM) [%] | loss of total cells (Human fetal astrocytes [1]; 11.11 µM) [%] | loss of total cells (Human fetal astrocytes [1]; 22.22 µM) [%] | synaptosome phagocytosis (Human fetal astrocytes [2]; 1.39 µM) [%] | synaptosome phagocytosis (Human fetal astrocytes [2]; 2.78 µM) [%] | synaptosome phagocytosis (Human fetal astrocytes [2]; 5.56 µM) [%] | synaptosome phagocytosis (Human fetal astrocytes [2]; 11.11 µM) [%] | synaptosome phagocytosis (Human fetal astrocytes [2]; 22.22 µM) [%]
22 | OC[C@H]1O[C@@](CO)(O[C@H]2O[C@H](CO)[C@@H](O)[C@H](O)[C@H]2O)[C@@H](O[C@H]2O[C@H](CO)[C@@H](O)[C@H](O)[C@H]2O)[C@@H]1O | -2.5 | -6.1 | 2.9 | 4.7 | 9.6 | 121 | 112 | 121 | 130 | 121
23 | N[C@@H](Cc1cc(I)c(Oc2ccc(O)c(I)c2)c(I)c1)C(=O)O [LIOTHYRONINE (L- isomer) SODIUM] | 16.9 | -27 | 10.6 | 3.6 | 14.6 | 94.4 | 92.8 | 109 | 80.5 | 66.2
24 | O=C(O)c1ccccc1Nc1cccc(C(F)(F)F)c1 | -5.8 | -7 | 3.3 | -3.9 | 2.3 | 109 | 109 | 101 | 90.5 | 65.4
25 | O=C1CC(c2ccc(O)cc2)Oc2ccccc21 (stereo not given) | 0.8 | 9.7 | 18.3 | 10.1 | 9.6 | 36.1 | 12.3 | 28.8 | 36.6 | 23.7
26 | Nc1nc(/C(=C/CC(=O)O)C(=O)N[C@@H]2C(=O)N3C(C(=O)O)=CCS[C@H]23)cs1 | -41.1 | -25.4 | 1.9 | 44.3 | 1.6 | 99.2 | 113 | 105 | 131 | 124
27 | CC1=C(C(=O)O)N2C(=O)[C@@H](NC(=O)[C@H](N)c3ccc(O)cc3)[C@H]2SC1 | -29 | -0.9 | -9.3 | -16.4 | -5.1 | 84.9 | 97.5 | 95.6 | 129 | 127
28 | CN(N=O)C(=O)N[C@@H]1[C@@H](O)[C@H](O)[C@@H](CO)O[C@@H]1O | 1.5 | -22.7 | -11.8 | -8.4 | 2.7 | 92 | 138 | 89.9 | 108 | 110
29 | CCCCCCCCNC(C)C(O)c1ccc(SC(C)C)cc1 (stereo not given) | 6.6 | 8.8 | 23.7 | -37.5 | 71.4 | 58.3 | 75 | 72.3 | 3.3 | 24.4
30 | CCN1CCN(C(=O)N[C@@H](C(=O)N[C@@H]2C(=O)N3C(C(=O)O)=C(CSc4nnnn4C)CS[C@H]23)c2ccc(O)cc2)C(=O)C1=O | 8.3 | -13.1 | 6.9 | -10.2 | 15.3 | 118 | 91.1 | 106 | 124 | 107
31 | CCN(CC)CCOCCOC(=O)C(CC)(CC)c1ccccc1 | 10.5 | 13.4 | 18.8 | 8.8 | 28 | 108 | 98.5 | 86 | 98.2 | 90.7
32 | OCCOCCN1CCN(C2=Nc3ccccc3Sc3ccccc32)CC1 | -37.1 | -40.5 | -5.6 | -2.3 | -6.5 | 107 | 91.9 | 87.1 | 106 | 89.9
33 | COc1cc(C/C=C/c2ccccc2)c(OC)cc1O | 6.9 | 17.9 | -12.2 | 37.4 | 6.3 | 119 | 96.3 | 102 | 134 | 115
34 | N[C@@H](CSCSC[C@H](N)C(=O)O)C(=O)O | -13.1 | -6.9 | -3.7 | -4.1 | 9.6 | 120 | 99.6 | 120 | 112 | 102
35 | C[n+]1ccccc1/C=N/O | 27.4 | -26.2 | 9.9 | -10.8 | 10.3 | 156 | 96 | 116 | 85.1 | 134
36 | COc1c2ccoc2c(OC)c2oc(=O)ccc12 | -4 | 14.6 | -8.4 | 45.8 | -6.3 | 118 | 131 | 93.9 | 118 | 63
37 | Cc1onc(-c2c(Cl)cccc2Cl)c1C(=O)N[C@@H]1C(=O)N2[C@@H]1SC(C)(C)[C@@H]2C(=O)O | 14.5 | -16.6 | 0.7 | 3.7 | -17.3 | 103 | 142 | 131 | 101 | 96.5
38 | N[C@@H](Cc1cc(I)c(Oc2ccc(O)c(I)c2)c(I)c1)C(=O)O | 9.2 | -9.2 | -11.1 | 0.3 | 42.2 | 134 | 106 | 89.2 | 112 | 122
39 | CO/N=C(\C(=O)N[C@@H]1C(=O)N2C(C(=O)OC(C)OC(C)=O)=C(COC(N)=O)CS[C@H]12)c1ccco1 (stereo not given in full) | 27.4 | -31.7 | 6.8 | 37 | 0.9 | 130 | 130 | 126 | 129 | 127
40 | CCOC(=O)c1ccc(O)cc1 | -21.6 | -10.1 | -1.5 | -9.4 | 9.6 | 106 | 101 | 104 | 110 | 110
41 | C[C@@]12C[C@@]3(O)O[C@@H](O1)[C@]1(COC(=O)c4ccccc4)[C@H]3C[C@@]12O[C@@H]1O[C@H](CO)[C@@H](O)[C@H](O)[C@H]1O | -11.5 | -1.8 | -18.3 | 14.2 | 4.4 | 88.5 | 104 | 71.1 | 120 | 119
42 | O=C(O)/C=C/C=C/c1ccccc1 | -18.5 | 12 | 30.5 | 4.5 | -19.6 | 98.6 | 119 | 149 | 97.7 | 81.5
